According to the supplement of paper PMC10849652:
This is one part of the list.

By UniProt entry, the sequences of proteins in these tests, tags left out. Where a name states a change or a piece, a line headed by the entry shows the natural chain unless it says otherwise.
UniProt Q15532, whole entry, looked up: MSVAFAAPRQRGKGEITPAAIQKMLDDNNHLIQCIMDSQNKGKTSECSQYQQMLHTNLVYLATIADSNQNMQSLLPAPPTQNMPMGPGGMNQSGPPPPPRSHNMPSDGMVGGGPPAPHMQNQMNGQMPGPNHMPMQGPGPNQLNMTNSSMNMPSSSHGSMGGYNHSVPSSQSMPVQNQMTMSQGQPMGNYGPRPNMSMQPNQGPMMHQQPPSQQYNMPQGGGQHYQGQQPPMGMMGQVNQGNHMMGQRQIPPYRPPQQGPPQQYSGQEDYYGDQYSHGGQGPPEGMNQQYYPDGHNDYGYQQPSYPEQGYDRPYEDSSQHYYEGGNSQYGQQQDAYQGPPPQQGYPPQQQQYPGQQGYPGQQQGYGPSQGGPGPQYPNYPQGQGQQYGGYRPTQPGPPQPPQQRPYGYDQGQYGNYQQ
UniProt P42229: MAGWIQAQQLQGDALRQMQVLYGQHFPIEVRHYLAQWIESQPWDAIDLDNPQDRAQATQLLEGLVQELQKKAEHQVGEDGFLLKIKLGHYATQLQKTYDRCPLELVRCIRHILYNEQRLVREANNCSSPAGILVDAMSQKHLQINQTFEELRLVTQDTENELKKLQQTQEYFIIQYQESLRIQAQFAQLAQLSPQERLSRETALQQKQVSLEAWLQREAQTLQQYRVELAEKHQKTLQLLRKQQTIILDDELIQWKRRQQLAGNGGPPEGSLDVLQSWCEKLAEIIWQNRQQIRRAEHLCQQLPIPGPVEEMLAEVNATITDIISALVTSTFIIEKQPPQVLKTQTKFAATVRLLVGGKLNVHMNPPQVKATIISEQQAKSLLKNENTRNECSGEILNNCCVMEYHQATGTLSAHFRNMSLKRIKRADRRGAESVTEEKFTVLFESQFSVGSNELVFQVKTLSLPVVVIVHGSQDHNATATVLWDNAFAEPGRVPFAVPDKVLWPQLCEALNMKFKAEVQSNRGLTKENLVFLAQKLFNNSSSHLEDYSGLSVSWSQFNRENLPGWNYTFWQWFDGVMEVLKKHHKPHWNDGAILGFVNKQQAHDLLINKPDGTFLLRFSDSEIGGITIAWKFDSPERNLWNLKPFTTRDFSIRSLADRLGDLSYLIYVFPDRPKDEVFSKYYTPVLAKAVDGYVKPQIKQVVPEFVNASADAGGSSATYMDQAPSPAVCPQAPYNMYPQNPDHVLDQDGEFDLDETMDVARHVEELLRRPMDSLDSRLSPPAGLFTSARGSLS
UniProt Q6ZRS2, whole entry, looked up: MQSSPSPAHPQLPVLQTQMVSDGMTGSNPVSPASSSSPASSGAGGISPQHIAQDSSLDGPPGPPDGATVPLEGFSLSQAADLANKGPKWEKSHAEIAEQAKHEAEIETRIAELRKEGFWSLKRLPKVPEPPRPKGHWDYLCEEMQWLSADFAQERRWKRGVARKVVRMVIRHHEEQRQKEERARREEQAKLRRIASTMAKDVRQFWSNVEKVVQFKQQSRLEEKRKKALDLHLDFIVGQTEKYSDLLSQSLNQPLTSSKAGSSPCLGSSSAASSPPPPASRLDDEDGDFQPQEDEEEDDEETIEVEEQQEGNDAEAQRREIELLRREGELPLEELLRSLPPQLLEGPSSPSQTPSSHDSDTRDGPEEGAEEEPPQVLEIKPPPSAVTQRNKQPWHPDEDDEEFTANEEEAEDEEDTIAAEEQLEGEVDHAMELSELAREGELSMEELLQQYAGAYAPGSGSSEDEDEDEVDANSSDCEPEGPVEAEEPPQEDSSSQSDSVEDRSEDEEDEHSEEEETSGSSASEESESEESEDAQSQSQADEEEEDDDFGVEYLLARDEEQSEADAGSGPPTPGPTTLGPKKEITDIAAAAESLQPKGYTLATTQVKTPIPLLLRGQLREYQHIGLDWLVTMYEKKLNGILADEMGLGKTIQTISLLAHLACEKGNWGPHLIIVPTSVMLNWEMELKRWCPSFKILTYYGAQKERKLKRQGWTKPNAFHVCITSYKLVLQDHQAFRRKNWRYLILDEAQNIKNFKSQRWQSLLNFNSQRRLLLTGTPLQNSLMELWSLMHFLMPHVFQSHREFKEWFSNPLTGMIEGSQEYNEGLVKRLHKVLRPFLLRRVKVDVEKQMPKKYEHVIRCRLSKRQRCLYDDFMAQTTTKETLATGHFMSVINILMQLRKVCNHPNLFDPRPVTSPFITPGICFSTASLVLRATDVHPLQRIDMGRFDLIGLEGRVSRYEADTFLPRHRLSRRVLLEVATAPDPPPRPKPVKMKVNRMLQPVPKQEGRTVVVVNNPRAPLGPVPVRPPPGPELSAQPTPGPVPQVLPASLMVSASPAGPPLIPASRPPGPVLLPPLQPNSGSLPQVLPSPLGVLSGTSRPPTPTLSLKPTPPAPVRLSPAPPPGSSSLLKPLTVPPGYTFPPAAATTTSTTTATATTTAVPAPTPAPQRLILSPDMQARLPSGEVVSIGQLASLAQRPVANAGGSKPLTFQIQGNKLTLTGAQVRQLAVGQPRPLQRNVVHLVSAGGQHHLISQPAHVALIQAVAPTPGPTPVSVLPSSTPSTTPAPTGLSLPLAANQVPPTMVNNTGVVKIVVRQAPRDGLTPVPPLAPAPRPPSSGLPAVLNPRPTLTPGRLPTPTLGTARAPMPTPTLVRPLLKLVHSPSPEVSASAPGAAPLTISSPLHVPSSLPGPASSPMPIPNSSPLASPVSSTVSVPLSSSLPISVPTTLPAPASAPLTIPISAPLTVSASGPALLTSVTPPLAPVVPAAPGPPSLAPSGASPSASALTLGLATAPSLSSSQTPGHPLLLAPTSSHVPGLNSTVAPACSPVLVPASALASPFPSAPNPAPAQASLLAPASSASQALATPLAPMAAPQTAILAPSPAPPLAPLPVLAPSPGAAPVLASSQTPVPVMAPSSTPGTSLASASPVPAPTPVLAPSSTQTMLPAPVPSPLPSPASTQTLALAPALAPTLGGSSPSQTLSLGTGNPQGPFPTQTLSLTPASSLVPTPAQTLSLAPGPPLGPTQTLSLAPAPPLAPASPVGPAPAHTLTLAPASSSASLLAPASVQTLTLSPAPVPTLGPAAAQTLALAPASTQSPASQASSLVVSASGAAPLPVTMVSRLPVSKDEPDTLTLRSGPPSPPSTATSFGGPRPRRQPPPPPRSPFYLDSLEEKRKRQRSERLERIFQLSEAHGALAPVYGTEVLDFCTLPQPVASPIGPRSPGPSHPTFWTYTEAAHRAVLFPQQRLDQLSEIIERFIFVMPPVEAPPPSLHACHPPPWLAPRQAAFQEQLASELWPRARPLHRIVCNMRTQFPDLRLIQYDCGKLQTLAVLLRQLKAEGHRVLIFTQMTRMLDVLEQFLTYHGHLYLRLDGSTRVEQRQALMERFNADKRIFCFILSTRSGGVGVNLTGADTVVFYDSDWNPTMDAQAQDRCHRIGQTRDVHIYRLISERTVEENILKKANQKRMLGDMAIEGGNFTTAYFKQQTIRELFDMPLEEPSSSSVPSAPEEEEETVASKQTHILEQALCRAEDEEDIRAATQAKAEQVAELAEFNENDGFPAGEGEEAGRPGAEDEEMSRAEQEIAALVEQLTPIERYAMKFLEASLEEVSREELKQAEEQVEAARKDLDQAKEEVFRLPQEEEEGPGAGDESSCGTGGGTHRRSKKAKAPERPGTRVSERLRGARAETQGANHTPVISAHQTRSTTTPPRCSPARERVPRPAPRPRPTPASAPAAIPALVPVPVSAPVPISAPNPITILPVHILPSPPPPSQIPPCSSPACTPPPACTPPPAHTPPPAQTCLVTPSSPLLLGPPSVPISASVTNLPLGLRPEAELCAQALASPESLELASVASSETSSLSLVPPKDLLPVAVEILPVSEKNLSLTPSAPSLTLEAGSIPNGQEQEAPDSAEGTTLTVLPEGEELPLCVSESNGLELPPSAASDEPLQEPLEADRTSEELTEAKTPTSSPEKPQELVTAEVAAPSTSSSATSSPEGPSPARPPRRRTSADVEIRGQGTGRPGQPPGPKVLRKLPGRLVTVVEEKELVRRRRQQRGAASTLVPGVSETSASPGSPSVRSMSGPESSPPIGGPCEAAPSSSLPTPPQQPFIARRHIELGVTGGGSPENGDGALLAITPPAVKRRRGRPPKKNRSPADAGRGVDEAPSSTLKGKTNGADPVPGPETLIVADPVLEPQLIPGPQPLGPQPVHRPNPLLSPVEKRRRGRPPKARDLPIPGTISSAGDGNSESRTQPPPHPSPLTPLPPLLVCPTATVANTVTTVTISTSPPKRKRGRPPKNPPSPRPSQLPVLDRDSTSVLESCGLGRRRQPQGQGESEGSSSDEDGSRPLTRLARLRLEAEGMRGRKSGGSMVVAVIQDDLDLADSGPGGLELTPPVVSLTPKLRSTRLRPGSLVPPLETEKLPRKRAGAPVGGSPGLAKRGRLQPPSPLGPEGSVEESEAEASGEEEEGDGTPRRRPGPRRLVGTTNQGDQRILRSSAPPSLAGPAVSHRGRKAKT
UniProt Q8N3U4: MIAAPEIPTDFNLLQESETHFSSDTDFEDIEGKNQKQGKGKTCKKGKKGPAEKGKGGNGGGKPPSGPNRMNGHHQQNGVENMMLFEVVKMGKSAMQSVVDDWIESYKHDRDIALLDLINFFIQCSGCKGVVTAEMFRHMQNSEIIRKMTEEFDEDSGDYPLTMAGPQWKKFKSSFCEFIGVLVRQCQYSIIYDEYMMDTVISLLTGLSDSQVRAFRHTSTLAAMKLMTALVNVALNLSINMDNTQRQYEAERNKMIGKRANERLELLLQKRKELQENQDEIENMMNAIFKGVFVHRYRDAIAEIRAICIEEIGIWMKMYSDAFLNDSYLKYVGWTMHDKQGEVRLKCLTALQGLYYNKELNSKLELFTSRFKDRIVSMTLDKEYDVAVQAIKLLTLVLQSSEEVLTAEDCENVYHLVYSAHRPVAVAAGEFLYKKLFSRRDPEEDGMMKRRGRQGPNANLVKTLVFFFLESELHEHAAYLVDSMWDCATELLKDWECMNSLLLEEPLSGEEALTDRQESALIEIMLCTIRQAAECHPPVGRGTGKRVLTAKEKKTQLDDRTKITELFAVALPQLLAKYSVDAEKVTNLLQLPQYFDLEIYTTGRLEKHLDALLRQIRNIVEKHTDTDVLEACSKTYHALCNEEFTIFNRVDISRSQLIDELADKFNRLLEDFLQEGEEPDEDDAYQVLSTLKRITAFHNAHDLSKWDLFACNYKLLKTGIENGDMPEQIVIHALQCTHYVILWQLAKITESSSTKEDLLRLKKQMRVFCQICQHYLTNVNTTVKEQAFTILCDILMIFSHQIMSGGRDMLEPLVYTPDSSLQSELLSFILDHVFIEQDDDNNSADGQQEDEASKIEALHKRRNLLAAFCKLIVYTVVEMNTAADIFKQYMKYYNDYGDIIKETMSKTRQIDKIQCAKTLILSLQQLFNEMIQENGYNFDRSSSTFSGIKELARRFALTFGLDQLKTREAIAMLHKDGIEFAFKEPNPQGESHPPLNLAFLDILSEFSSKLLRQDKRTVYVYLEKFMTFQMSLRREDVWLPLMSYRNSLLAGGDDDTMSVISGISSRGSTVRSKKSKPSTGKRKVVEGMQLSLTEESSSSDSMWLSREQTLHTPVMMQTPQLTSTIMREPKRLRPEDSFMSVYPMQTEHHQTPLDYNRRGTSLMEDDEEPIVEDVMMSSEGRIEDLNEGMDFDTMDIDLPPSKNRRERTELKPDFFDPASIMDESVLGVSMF
UniProt Q9BWG4: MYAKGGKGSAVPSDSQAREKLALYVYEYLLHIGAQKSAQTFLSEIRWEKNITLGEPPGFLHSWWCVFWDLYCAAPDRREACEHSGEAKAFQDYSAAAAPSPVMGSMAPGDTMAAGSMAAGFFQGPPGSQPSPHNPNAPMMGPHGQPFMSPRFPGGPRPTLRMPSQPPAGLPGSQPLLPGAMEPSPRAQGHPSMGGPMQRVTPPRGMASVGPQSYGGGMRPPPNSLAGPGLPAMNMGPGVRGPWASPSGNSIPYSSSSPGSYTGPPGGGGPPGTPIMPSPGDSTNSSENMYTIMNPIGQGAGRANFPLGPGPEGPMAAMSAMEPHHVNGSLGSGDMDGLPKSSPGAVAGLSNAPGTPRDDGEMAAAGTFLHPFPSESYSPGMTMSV
UniProt Q7Z699: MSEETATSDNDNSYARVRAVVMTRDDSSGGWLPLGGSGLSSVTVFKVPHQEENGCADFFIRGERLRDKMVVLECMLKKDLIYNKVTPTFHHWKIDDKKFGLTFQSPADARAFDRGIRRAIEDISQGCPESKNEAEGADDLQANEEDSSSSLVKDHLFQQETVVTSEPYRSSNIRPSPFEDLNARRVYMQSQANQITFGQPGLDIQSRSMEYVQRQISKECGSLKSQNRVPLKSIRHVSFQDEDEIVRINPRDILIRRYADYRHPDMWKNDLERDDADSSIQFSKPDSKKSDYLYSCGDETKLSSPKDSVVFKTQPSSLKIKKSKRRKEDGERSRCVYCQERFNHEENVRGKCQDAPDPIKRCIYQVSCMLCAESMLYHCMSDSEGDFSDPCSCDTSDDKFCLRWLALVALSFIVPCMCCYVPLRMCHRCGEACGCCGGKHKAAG

What was measured:
Assay in all cases: log2 fold change, soluble protein after heating vs DMSO (PISA); higher = thermal stabilisation; K562 lysate, 10 uM; active = over 0.2 and 3.5 SD of the protein, either way, in both replicates (recomputed)
[1] = compound: CS(=O)(=O)CCNCc1ccc(-c2ccc3ncnc(Nc4ccc(OCc5cccc(F)c5)c(Cl)c4)c3c2)o1 [lapatinib]
Method in brief: (§1)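 The values are log-two fold changes in thermal stability compared with solvent controls and come from duplicates. They were obtained by TMTpro 16plex LC-MS/MS, with channel sums equalised, on the supernatant after 21,000xg for 90 min. That supernatant came from crude K562 extract at 1 mg/mL protein treated with 10 μM compound for 30 min, heated for 3 min across 48°C-58°C, pooled and brought to 0.5% NP-40 at 4°C.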

[2] = compound: CS(=O)(=O)N1CCN(Cc2cc3nc(-c4cccc5[nH]ncc45)nc(N4CCOCC4)c3s2)CC1 [pictilisib]
Method in brief: as §1

[3] = compound: C[C@@H](Oc1cc(-c2cnn(C3CCNCC3)c2)cnc1N)c1c(Cl)ccc(F)c1Cl [crizotinib]
Method in brief: as §1

[4] = compound: C[C@H](C1=CC=C(C=C1)C(=O)NC2=C3C=CNC3=NC=C2)N
Method in brief: as §1

[5] = compound: C[C@H](Nc1ncnc2nc[nH]c12)c1cc2cccc(Cl)c2c(=O)n1-c1ccccc1 [duvelisib]
Method in brief: as §1

[6] = compound: Cc1cc(Nc2cc(CN3CCOCC3)c3nc(C)c(Cc4ccc(Cl)cc4F)n3n2)n[nH]1 [gandotinib]
Method in brief: as §1

[7] = compound: Cc1cc(Nc2cc(N3CCN(C)CC3)nc(Sc3ccc(NC(=O)C4CC4)cc3)n2)n[nH]1 [tozasertib]
Method in brief: as §1

[8] = compound: Cc1ccc(-n2nc(C(C)(C)C)cc2NC(=O)Nc2ccc(OCCN3CCOCC3)c3ccccc23)cc1 [doramapimod]
Method in brief: as §1

[9] = compound: Cc1ccc(NC(=O)c2ccc(CN3CC[C@H](N(C)C)C3)c(C(F)(F)F)c2)cc1Nc1nccc(-c2cncnc2)n1 [bafetinib]
Method in brief: as §1

[10] = compound: Cc1cccc(CC(=O)N2CCc3c2ccc(-c2cn(C)c4ncnc(N)c24)c3F)n1
Method in brief: as §1

[11] = compound: Cc1cn(-c2cc(NC(=O)c3ccc(C)c(Nc4nccc(-c5cccnc5)n4)c3)cc(C(F)(F)F)c2)cn1 [nilotinib]
Method in brief: as §1

[12] = compound: Cc1nc(Nc2n[nH]c3c2CN(C(=O)N[C@H](CN(C)C)c2ccccc2)C3(C)C)c2sccc2n1
Method in brief: as §1

[13] = compound: Cc1nc(Nc2ncc(C(=O)Nc3c(C)cccc3Cl)s2)cc(N2CCN(CCO)CC2)n1 [dasatinib]
Method in brief: as §1

[14] = compound: Cc1ncc(-c2ccnc(Nc3ccc(S(C)(=O)=O)cc3)n2)n1C(C)C
Method in brief: as §1

[15] = compound: Cn1cc(-c2ccc3c(c2)CCN3C(=O)Cc2cccc(C(F)(F)F)c2)c2c(N)ncnc21
Method in brief: as §1

[16] = compound: Cn1cc(CNCC2CCN(c3ncc(C(=O)NO)cn3)CC2)c2ccccc21 [quisinostat]
Method in brief: as §1

[17] = compound: Cn1cncc1[C@@](N)(c1ccc(Cl)cc1)c1ccc2c(c1)c(-c1cccc(Cl)c1)cc(=O)n2C [tipifarnib]
Method in brief: as §1

[18] = compound: NC(=O)Nc1cc(-c2cccc(F)c2)sc1C(=O)N[C@H]1CCCNC1
Method in brief: as §1

[19] = compound: NC(=O)c1cnc(N[C@@H]2CCCC[C@@H]2N)nc1Nc1cccc(-n2nccn2)c1
Method in brief: as §1

[20] = compound: NC1(c2ccc(-c3nc4ccn5c(=O)[nH]nc5c4cc3-c3ccccc3)cc2)CCC1
Method in brief: as §1

Measured: log2 fold change

SRRM1 (UniProt Q8IYB3)
inactive: [1] 0.006 | [2] -0.002 | [3] 0.034 | [4] -0.019 | [5] -0.023 | [6] -0.063 | [7] -0.002 | [8] -0.124 | [9] -0.031 | [10] 0.03 | [11] 0.015 | [12] 0.008 | [13] 0.048 | [14] 0.031 | [15] 0.029 | [16] 0.147 | [17] 0.011 | [18] -0.034 | [19] 0.012 | [20] 0.036

SPATA33 isoform 2 (UniProt Q96N06)
inactive: [1] -0.019 | [2] -0.017 | [4] 0.177 | [5] -0.17 | [6] -0.333 | [7] 0.038 | [9] 0.108 | [10] 0.326 | [11] -0.355 | [12] 0.041 | [13] 0.077 | [14] 0.05 | [15] 0.108 | [17] -0.116 | [19] -0.138

SS18 (UniProt Q15532)
inactive: [1] 0.039 | [3] 0.074 | [4] 0.136 | [5] 0.034 | [6] -0.192 | [7] 0.119 | [8] -0.016 | [10] -0.178 | [11] 0.061 | [12] 0.114 | [13] -0.052 | [14] 0.133 | [15] -0.01 | [16] 0.045 | [17] 0.018 | [18] -0.088 | [19] -0.049 | [20] -0.004

SRA1 (UniProt Q9HD15)
inactive: [1] -0.008 | [2] -0.023 | [3] 0.023 | [4] -0.088 | [5] 0.016 | [6] 0.081 | [7] -0.008 | [8] -0.025 | [9] 0.013 | [10] 0.027 | [11] 0.005 | [12] -0.014 | [13] 0.068 | [14] -0.001 | [15] -0.043 | [16] -0.032 | [17] 0.022 | [18] 0.009 | [19] -0.017 | [20] 0.02

Reprinted from the results shown (two entries):
SRRM1 (UniProt Q8IYB3)
inactive: [1] 0.006 | [2] -0.002 | [3] 0.034 | [4] -0.019 | [5] -0.023 | [6] -0.063 | [7] -0.002 | [8] -0.124 | [9] -0.031 | [10] 0.03 | [11] 0.015 | [12] 0.008 | [13] 0.048 | [14] 0.031 | [15] 0.029 | [16] 0.147 | [17] 0.011 | [18] -0.034 | [19] 0.012 | [20] 0.036

SPATA33 isoform 2 (UniProt Q96N06)
inactive: [1] -0.019 | [2] -0.017 | [4] 0.177 | [5] -0.17 | [6] -0.333 | [7] 0.038 | [9] 0.108 | [10] 0.326 | [11] -0.355 | [12] 0.041 | [13] 0.077 | [14] 0.05 | [15] 0.108 | [17] -0.116 | [19] -0.138

Next entries follow:

STAT5A (UniProt P42229)
inactive: [1] -0.02 | [2] -0.011 | [3] -0.017 | [4] 0.027 | [5] -0.02 | [6] -0.043 | [7] 0.032 | [8] -0.003 | [9] -0.043 | [10] -0.016 | [11] -0.004 | [12] -0.024 | [13] -0.04 | [14] 0 | [15] 0.034 | [16] -0.007 | [17] -0.017 | [18] 0.028 | [19] 0.032 | [20] -0.005

SRCAP (UniProt Q6ZRS2)
inactive: [1] 0.013 | [2] -0.023 | [3] -0.001 | [4] 0.004 | [5] -0.017 | [6] -0.084 | [7] 0.06 | [8] 0.037 | [9] -0.028 | [10] -0.003 | [11] 0.021 | [12] 0.049 | [13] -0.022 | [14] -0.085 | [15] 0.038 | [16] 0.025 | [17] 0.026 | [18] 0.038 | [19] 0.002 | [20] -0.025

STAG2 (UniProt Q8N3U4)
inactive: [1] -0.096 | [3] 0.05 | [4] 0.009 | [6] 0.107 | [7] -0.089 | [8] 0.112 | [10] -0.011 | [16] -0.047 | [18] -0.037 | [19] -0.006 | [20] -0.005

SSBP4 (UniProt Q9BWG4)
inactive: [1] 0.002 | [2] -0.053 | [3] 0.032 | [4] 0.079 | [6] 0.061 | [7] -0.149 | [8] -0.188 | [9] 0.043 | [10] -0.006 | [11] -0.38 | [12] 0.091 | [14] 0.03 | [16] -0.045 | [17] -0.241 | [18] 0.042 | [19] 0.03

SRD5A3 (UniProt Q9H8P0)
inactive: [1] -0.433 | [2] 0.065 | [3] 0.104 | [5] 0.056 | [7] -0.057 | [8] 0.008 | [9] -0.091 | [11] -0.132 | [12] -0.23 | [13] -0.118 | [14] 0.044 | [15] 0.219 | [16] 0.372 | [17] -0.062 | [18] -0.086 | [19] -0.223 | [20] 0.023

SPRED1 (UniProt Q7Z699)
inactive: [1] 0.098 | [2] -0.176 | [4] 0.023 | [5] 0.108 | [6] 0.124 | [7] -0.016 | [9] 0.111 | [10] -0.083 | [13] 0.027 | [15] -0.02 | [19] 0.013 | [20] 0.039
